In PMC12151148 one finds binding data, which are given here for four molecules.

Results are given in words; binding and its absence hold for the method and conditions named. For part of these data: Binding can be weak; no strength is given.

Experiment [1] has as its target LGN-TPR (1–409) (mouse). The experiment is described as follows: ITC; 25°C; 50 mM Tris (pH 8.0), 100 mM NaCl, 1 mM EDTA; one protein (0.2 mM) injected into another (0.02 mM); one-site binding model; both purified. (In ITC the heat of successive injections is recorded.)
For experiment [2], the target named is AGS3-L (−23–405) (mouse). The experiment is described as follows: ITC; 25°C; 50 mM Tris (pH 8.0), NaCl raised to 300 mM for AGS3-TPR or AGS3-L, 1 mM EDTA; one protein (0.2 mM) injected into another (0.02 mM); one-site binding model; both purified.
For experiment [3], the target named is AGS3-TPR (1–405) (mouse). The experiment is described as follows: ITC; titration of Insc (18–66) or NuMA (1886–1912) into a 1:1 mixture of AGS3-TPR with the other partner; both purified.
Experiment [4] addresses AGS3-TPR (1–405) (mouse). Nature of the experiment: SEC; as the analytical SEC, three proteins mixed: AGS3 or LGN protein, NuMA fragment and Insc (18–66) at 1:2:2 (10, 20, 20 μM); fractions on SDS–PAGE; both purified.
The target of experiment [5] is AGS3-L (−23–405) (mouse). The experiment is described as above.
The target in experiment [6] is LGN-TPR (1–409) (mouse). Described as above.
For experiment [7], the target named is AGS3-L (−23–405) (mouse). Nature of the experiment: SEC; AGS3-L, LGN-TPR and NuMA (1847–1914) mixed 1:1:1; fractions on Coomassie-stained SDS–PAGE; both purified. Background: SEC sorts molecules by how far they enter the pores of the column.
Experiment [8] addresses LGN-TPR (1–409) (mouse). The description is as above.
Experiment [9] has as its target AGS3-TPR (1–405) (mouse). Nature of the experiment: SEC; analytical, Superose 12 10/300 GL; 50 mM Tris–HCl (pH 8.0), 100 mM NaCl, 1 mM 2-mercaptoethanol, 1 mM EDTA; AGS3 or LGN protein 10 μM, NuMA fragment in excess at 20 μM; both purified.
In experiment [10] the target is AGS3-L (−23–405) (mouse). The experiment is described as above.
The target in experiment [11] is LGN-TPR (1–409) (mouse). The experiment is described as above.
In experiment [12] the target is LGN (15–350) (mouse). Described as above.
For experiment [13], the target named is AGS3-TPR (1–405) (mouse). Nature of the experiment: condition: only AGS3-TPR premixed 1:1 with Insc (18–66); ITC; titration of Insc (18–66) or NuMA (1886–1912) into a 1:1 mixture of AGS3-TPR with the other partner; both purified.

Turning to WGLWGAQESRRLCCVGPDRCGQALLQIGINMMALPGGRHLDSVPLQEQR (domain or fragment, UniProt Q3HNM7 18-66) [Insc (18–66)], the binding result in experiment [1], in [2], in experiment [3], in experiment [4], in [5] and in experiment [6] was “binds” in each case.

B1: NuMA (1847–1914) (domain or fragment, UniProt Q14980-2 1847-1914)
chain: GSPDYGNSALLSLPGYRPTTRSSARRSQAGVSSGAPPGRNSFYMGTCQDEPEQLDDWNRIAELQQRNR
Regarding B1, the binding entry in [7], in [8], in experiment [9], in experiment [10], in [11] and in experiment [12] was “binds” each time. Also, the binding result in experiment [5] and in experiment [6] was “binds” throughout.

B2: NuMA-CC (1578–1690–7(TGS)–1807–1987) (domain or fragment, UniProt Q14980-2 1578-1690; Q14980-2 1807-1987)
chain: QLNELQAQLSQKEQAAEHYKLQMEKAKTHYDAKKQQNQELQEQLRSLEQLQKENKELRAEAERLGHELQQAGLKTKEAEQTCRHLTAQVRSLEAQVAHADQQLRDLGKFQVATTGSTGSTGSTGSTGSTGSTGSKKLDVEEPDSANSSFYSTRSAPASQASLRATSSTQSLARLGSPDYGNSALLSLPGYRPTTRSSARRSQAGVSSGAPPGRNSFYMGTCQDEPEQLDDWNRIAELQQRNRVCPPHLKTCYPLESRPSLSLGTITDEEMKTGDPQETLRRASMQPIQIAEGTGITTRQQRKRVSLEPHQGPGTP
Consider B2, for which the binding result in experiment [10], in [11], in experiment [5] and in [6] was “binds” throughout.

Take NSFYMGTCQDEPEQLDDWNRIAELQQR (domain or fragment, UniProt Q14980-2 1886-1912) [NuMA (1886–1912)]: the binding entry in experiment [1] is listed as “binds”; in experiment [11], “binds”; in [2] it was “binds”; in experiment [4], “binds”; in [6], “binds”; in [13] it was “no binding”.
